# PubChem BioAssay AID1259254 | NCATS | 2017
# Screen: 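Genome-wide screen for genes that prevent DNA re-replication in cancer cells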 (primary screen)
# Cells: human HCT116 colorectal cancer cells
# Reagents: single siRNA against human genes
# Timing: 3 days
# Detection: 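Imaged Hoechst DNA stain sorts each cell into a cycle phase by DNA amount; per plate, G2 fraction set to 0% for non-targeting and 100% for GMNN siRNA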
# Scale: G2 robust z-score and G2 cells, % of GMNN control: higher = more G2 cells, more excess DNA replication
# Active means: 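An siRNA counts as active if its G2 robust z-score lies at least 5 MADs above the screen median; here such calls match roughly 38% of GMNN control or more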
# This is a random part of about 59,000 reagents tested. About 1,550 of all reagents (2.6%) were called active. 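G2 share is only a proxy for re-replication; each gene was hit by three separate siRNAs, and active genes were retested.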 Reagents against one gene are numbered here. Not all columns of the deposit are shown. Not given: the amount of reagent.
The opening 6 records as a preview:
gene,siRNA no.,G2 robust z-score,"G2 cells, % of GMNN control",outcome
LOC729680 (retired record),1,0.0936,3.63,inactive
LOC729680 (retired record),2,0.588,7.11,inactive
LOC729680 (retired record),3,0.123,3.84,inactive
SLC25A13,1,-0.46,-0.269,inactive
SLC25A13,2,-0.631,-1.48,inactive
SLC25A13,3,0.0794,3.53,inactive

Main list, from the start:
gene,siRNA no.,G2 robust z-score,"G2 cells, % of GMNN control",outcome
LOC729680 (retired record),1,0.0936,3.63,inactive
LOC729680 (retired record),2,0.588,7.11,inactive
LOC729680 (retired record),3,0.123,3.84,inactive
SLC25A13,1,-0.46,-0.269,inactive
SLC25A13,2,-0.631,-1.48,inactive
SLC25A13,3,0.0794,3.53,inactive
"PCDHGB5 (protocadherin gamma subfamily B, 5)",1,0.951,9.66,inactive
"PCDHGB5 (protocadherin gamma subfamily B, 5)",2,-0.00522,2.93,inactive
"PCDHGB5 (protocadherin gamma subfamily B, 5)",3,0.49,6.42,inactive
PRKCA (protein kinase C alpha),1,-0.56,-0.976,inactive
PRKCA (protein kinase C alpha),2,0.959,9.71,inactive
PRKCA (protein kinase C alpha),3,0.133,3.91,inactive
SPARCL1 (SPARC like 1),1,-0.348,0.517,inactive
SPARCL1 (SPARC like 1),2,-0.606,-1.3,inactive
SPARCL1 (SPARC like 1),3,0.229,4.58,inactive
"NUDC (nuclear distribution C, dynein complex regulator)",1,0.8,8.6,inactive
"NUDC (nuclear distribution C, dynein complex regulator)",2,3.12,24.9,inactive
"NUDC (nuclear distribution C, dynein complex regulator)",3,1.38,12.6,inactive
SELENOF (selenoprotein F),1,-0.562,-0.988,inactive
SELENOF (selenoprotein F),2,-0.238,1.29,inactive
SELENOF (selenoprotein F),3,8.36,61.8,active
PTDSS2 (phosphatidylserine synthase 2),1,1.49,13.5,inactive
PTDSS2 (phosphatidylserine synthase 2),2,-0.1,2.26,inactive
PTDSS2 (phosphatidylserine synthase 2),3,3.81,29.8,inactive
KHDC1 (KH domain containing 1),1,-0.743,-2.26,inactive
KHDC1 (KH domain containing 1),2,-0.52,-0.688,inactive
KHDC1 (KH domain containing 1),3,0.109,3.73,inactive
H3C11 (H3 clustered histone 11),1,-0.786,-2.57,inactive
H3C11 (H3 clustered histone 11),2,-0.734,-2.19,inactive
H3C11 (H3 clustered histone 11),3,1.07,10.5,inactive
NUF2 (NUF2 component of NDC80 kinetochore complex),1,5.39,40.9,active
NUF2 (NUF2 component of NDC80 kinetochore complex),2,2.57,21.1,inactive
NUF2 (NUF2 component of NDC80 kinetochore complex),3,2.84,23,inactive
PAGE5 (PAGE family member 5),1,0.402,5.8,inactive
PAGE5 (PAGE family member 5),2,3.39,26.8,inactive
PAGE5 (PAGE family member 5),3,0.0314,3.19,inactive
CAPN10 (calpain 10),1,3.88,30.3,inactive
CAPN10 (calpain 10),2,1.29,12.1,inactive
CAPN10 (calpain 10),3,-0.38,0.293,inactive
OR8B8 (olfactory receptor family 8 subfamily B member 8),1,3.59,28.3,inactive
OR8B8 (olfactory receptor family 8 subfamily B member 8),2,0.37,5.57,inactive
OR8B8 (olfactory receptor family 8 subfamily B member 8),3,1.9,16.3,inactive
TOPORS,1,-1.21,-5.53,inactive
TOPORS,2,0.394,5.74,inactive
TOPORS,3,-1.57,-8.09,inactive
ZFTRAF1 (zinc finger TRAF-type and ring finger containing 1),1,0.139,3.95,inactive
ZFTRAF1 (zinc finger TRAF-type and ring finger containing 1),2,2.34,19.4,inactive
ZFTRAF1 (zinc finger TRAF-type and ring finger containing 1),3,-1.34,-6.43,inactive
FIGLA (folliculogenesis specific bHLH transcription factor),1,0.475,6.31,inactive
FIGLA (folliculogenesis specific bHLH transcription factor),2,-1.5,-7.6,inactive
FIGLA (folliculogenesis specific bHLH transcription factor),3,0.134,3.91,inactive
PPARG (peroxisome proliferator activated receptor gamma),1,0.0579,3.37,inactive
PPARG (peroxisome proliferator activated receptor gamma),2,2.22,18.6,inactive
PPARG (peroxisome proliferator activated receptor gamma),3,2.24,18.7,inactive
MCF2L (MCF.2 cell line derived transforming sequence like),1,-0.692,-1.9,inactive
MCF2L (MCF.2 cell line derived transforming sequence like),2,-0.481,-0.418,inactive
MCF2L (MCF.2 cell line derived transforming sequence like),3,0.418,5.91,inactive
DNPEP (aspartyl aminopeptidase),1,0.494,6.44,inactive
DNPEP (aspartyl aminopeptidase),2,0.855,8.98,inactive
DNPEP (aspartyl aminopeptidase),3,5.32,40.4,active
"MUSTN1 (musculoskeletal, embryonic nuclear protein 1)",1,1.07,10.5,inactive
"MUSTN1 (musculoskeletal, embryonic nuclear protein 1)",2,0.19,4.31,inactive
"MUSTN1 (musculoskeletal, embryonic nuclear protein 1)",3,5.33,40.5,active
ZNF440 (zinc finger protein 440),1,-0.226,1.37,inactive
ZNF440 (zinc finger protein 440),2,0.853,8.97,inactive
ZNF440 (zinc finger protein 440),3,2.21,18.5,inactive
NIPSNAP3B (nipsnap homolog 3B),1,-0.132,2.04,inactive
NIPSNAP3B (nipsnap homolog 3B),2,0.367,5.55,inactive
NIPSNAP3B (nipsnap homolog 3B),3,-0.289,0.937,inactive
TBC1D26 (TBC1 domain family member 26),1,0.469,6.27,inactive
TBC1D26 (TBC1 domain family member 26),2,-0.0671,2.5,inactive
TBC1D26 (TBC1 domain family member 26),3,-0.397,0.173,inactive
DIPK2A (divergent protein kinase domain 2A),1,-0.839,-2.93,inactive
DIPK2A (divergent protein kinase domain 2A),2,4.45,34.3,inactive
DIPK2A (divergent protein kinase domain 2A),3,0.153,4.04,inactive
CUX2 (cut like homeobox 2),1,3.3,26.2,inactive
CUX2 (cut like homeobox 2),2,-0.502,-0.567,inactive
CUX2 (cut like homeobox 2),3,-0.56,-0.97,inactive
YTHDF3 (YTH N6-methyladenosine RNA binding protein F3),1,-0.0634,2.52,inactive
YTHDF3 (YTH N6-methyladenosine RNA binding protein F3),2,-0.141,1.98,inactive
YTHDF3 (YTH N6-methyladenosine RNA binding protein F3),3,-0.414,0.0536,inactive
PRELID1 (PRELI domain containing 1),1,0.733,8.12,inactive
PRELID1 (PRELI domain containing 1),2,-0.198,1.57,inactive
PRELID1 (PRELI domain containing 1),3,-0.776,-2.49,inactive
LY6G6D (lymphocyte antigen 6 family member G6D),1,-0.312,0.773,inactive
LY6G6D (lymphocyte antigen 6 family member G6D),2,0.21,4.45,inactive
LY6G6D (lymphocyte antigen 6 family member G6D),3,2.21,18.5,inactive
